According to PMC5732799:
No constants are given. Whether binding was seen depends on the method and setting. Binding seen in cells or lysates may run through a third protein. Some entries that bind do so weakly or less than the wild type.

T1: activating transcription factor-2 (ATF-2) (human (endogenous in A549 and PC9)) (UniProt P15336)
T1 sequence: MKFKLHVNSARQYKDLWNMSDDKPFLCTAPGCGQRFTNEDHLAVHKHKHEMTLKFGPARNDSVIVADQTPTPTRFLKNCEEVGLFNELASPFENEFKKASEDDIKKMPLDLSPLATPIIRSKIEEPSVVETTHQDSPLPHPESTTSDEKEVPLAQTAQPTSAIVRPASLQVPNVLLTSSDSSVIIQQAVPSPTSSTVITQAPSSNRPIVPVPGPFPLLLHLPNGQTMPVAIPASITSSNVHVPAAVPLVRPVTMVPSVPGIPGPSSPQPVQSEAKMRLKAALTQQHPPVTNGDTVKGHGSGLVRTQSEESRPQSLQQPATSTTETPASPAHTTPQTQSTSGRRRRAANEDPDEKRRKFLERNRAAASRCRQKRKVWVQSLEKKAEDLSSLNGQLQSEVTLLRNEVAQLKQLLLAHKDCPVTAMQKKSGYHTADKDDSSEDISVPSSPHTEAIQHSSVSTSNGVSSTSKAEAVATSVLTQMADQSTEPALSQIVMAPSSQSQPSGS

T2: activating transcription factor-2 (ATF-2) (human (endogenous in A549 and PC9)), P15336
T2 chain: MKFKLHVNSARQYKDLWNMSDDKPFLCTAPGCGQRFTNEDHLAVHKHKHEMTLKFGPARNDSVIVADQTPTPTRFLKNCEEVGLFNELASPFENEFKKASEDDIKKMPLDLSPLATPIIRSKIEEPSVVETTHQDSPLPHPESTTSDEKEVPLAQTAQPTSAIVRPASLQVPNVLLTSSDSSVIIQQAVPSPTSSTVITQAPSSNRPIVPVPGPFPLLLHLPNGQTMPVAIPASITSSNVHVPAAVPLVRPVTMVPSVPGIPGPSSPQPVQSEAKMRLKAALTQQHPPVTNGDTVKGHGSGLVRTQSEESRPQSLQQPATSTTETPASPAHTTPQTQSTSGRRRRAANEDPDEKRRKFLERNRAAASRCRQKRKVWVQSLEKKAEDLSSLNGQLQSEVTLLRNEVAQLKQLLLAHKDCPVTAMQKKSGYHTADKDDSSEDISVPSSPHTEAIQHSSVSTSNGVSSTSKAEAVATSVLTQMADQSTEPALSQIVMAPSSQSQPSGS


Assays:
[1] = molecular target: T1, activating transcription factor-2 (ATF-2) (human (endogenous in A549 and PC9)); assay: condition: only cells transfected with miR-216b mimics (50 pmol/ml), which lower the c-Jun protein level; co-IP; A549 and PC9 cells transfected with miR-216b mimics (50 pmol/ml) and treated with cisplatin (2 uM); RIPA lysate incubated with ATF2 antibody at 4 °C overnight, protein G agarose beads, western blot
[2] = molecular target: T2, activating transcription factor-2 …; assay: co-IP; A549 and PC9 cells treated with cisplatin (2 uM); RIPA lysate incubated with ATF2 antibody at 4 °C overnight, protein G agarose beads, washed three times with RIPA buffer, western blot; details: remark: other sources report otherwise

binding [1] | binding [2] | Molecule
no binding |  | c-Jun (from UniProt P05412 1-331)
 | binds | c-Jun, P05412 1-331 (protein) MTAKMETTFYDDALNASFLPSESGPYGYSNPKILKQSMTLNLADPVGSLKPHLRAKNSDLLTSPDVGLLKLASPELERLIIQSSNGHITTTPTPTQFLCPKNVTDEQEGFAEGFVRALAELHSQNTLPSVTSAAQPVNGAGMVAPAVASVAGGSGSGGFSASLHSEPPVYANLSNFNPGALSSGGGAPSYGAAGLAFPAQPQQQQQPPHHLPQQMPVQHPRLQALKEEPQTVPEMPGETPPLSPIDMESQERIKAERKRMRNRIAASKCRKRKLERIARLEEKVKTLKAQNSELASTANMLREQVAQLKQKVMNHVNSGCQLMLTQQLQTF
